According to PMC6380604:
No constants are given. Whether binding was seen depends on the method and setting. Binding seen in cells or lysates may run through a third protein. Some results given as binding are weak or reduced against the parent protein; the word gives no strength. Tags and fused reporters may be left off the sequences shown.

Protein sequences, listed by entry. Tags and fused reporters are not part of them. Residues count along the entry.
UniProt P78324, residues 31-504: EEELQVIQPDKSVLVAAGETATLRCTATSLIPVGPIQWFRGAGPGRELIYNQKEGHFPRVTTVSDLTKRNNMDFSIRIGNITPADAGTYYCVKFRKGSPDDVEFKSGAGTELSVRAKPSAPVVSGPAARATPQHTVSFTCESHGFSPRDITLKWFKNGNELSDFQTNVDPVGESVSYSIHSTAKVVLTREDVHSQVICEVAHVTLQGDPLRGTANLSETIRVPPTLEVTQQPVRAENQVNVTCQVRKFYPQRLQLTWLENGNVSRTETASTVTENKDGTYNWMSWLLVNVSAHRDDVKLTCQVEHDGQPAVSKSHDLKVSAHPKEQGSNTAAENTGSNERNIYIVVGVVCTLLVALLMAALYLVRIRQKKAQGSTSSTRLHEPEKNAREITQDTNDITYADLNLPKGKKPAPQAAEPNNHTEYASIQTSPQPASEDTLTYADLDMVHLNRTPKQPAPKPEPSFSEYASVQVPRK

Biological target: FLAG-tagged human signal regulatory protein α (SIRPA) (human) (UniProt P78324)
Assay: co-IP

binding: binds
B1: myc-tagged TRIM2 (full length) (protein, UniProt Q9ESN6 1-744)
chain: MASEGASIPSPVVRQIDKQFLICSICLERYKNPKVLPCLHTFCERCLQNYIPAHSLTLSCPVCRQTSILPEKGVAALQNNFFITNLMDVLQRTPGSNGEDSSILETVTAVAAGKPLSCPNHDGNVMEFYCQSCETAMCRECTEGEHAEHPTVPLKDVVEQHKASLQVQLDAVNKRLPEIDSALQFISEIIHQLTNQKASIVDDIHSTFDELQKTLNVRKSVLLMELEVNYGLKHKVLQSQLDTLLQGQESIKSCSNFTAQALNHGTETEVLLVKKQMSEKLNELADQDFPLHPRENDQLDFIVETEGLKKSIHNLGTILTTNAVASETVATGEGLRQTIIGQPMSVTITTKDKDGELCKTGNAYLTAELSTPDGSVADGEILDNKNGTYEFLYTVQKEGDFTLSLRLYDQHIRGSPFKLKVIRSADVSPTTEGVKRRVKSPGSGHVKQKAVKRPASMYSTGKRKENPIEDDLIFRVGTKGRNKGEFTNLQGVAASTSGKILIADSNNQCVQIFSNDGQFKSRFGIRGRSPGQLQRPTGVAVHPSGDIIIADYDNKWVSIFSNDGKFKTKIGSGKLMGPKGVSVDRNGHIIVVDNKACCVFIFQPNGKIVTRFGSRGNGDRQFAGPHFAAVNSNNEIIITDFHNHSVKVFNQEGEFMLKFGSNGEGNGQFNAPTGVAVDSNGNIIVADWGNSRIQVFDGSGSFLSYINTSADPLYGPQGLALTSDGHVVVADSGNHCFKVYRYLQ
